# Experimental data taken from PubChem BioAssay AID1671190 (National Center for Advancing Translational Sciences (NCATS), 2021).
# By UniProt entry, the sequences of proteins in these tests, tags left out. Where a name states a change or a piece, a line headed by the entry shows the natural chain unless it says otherwise.
# UniProt P18054: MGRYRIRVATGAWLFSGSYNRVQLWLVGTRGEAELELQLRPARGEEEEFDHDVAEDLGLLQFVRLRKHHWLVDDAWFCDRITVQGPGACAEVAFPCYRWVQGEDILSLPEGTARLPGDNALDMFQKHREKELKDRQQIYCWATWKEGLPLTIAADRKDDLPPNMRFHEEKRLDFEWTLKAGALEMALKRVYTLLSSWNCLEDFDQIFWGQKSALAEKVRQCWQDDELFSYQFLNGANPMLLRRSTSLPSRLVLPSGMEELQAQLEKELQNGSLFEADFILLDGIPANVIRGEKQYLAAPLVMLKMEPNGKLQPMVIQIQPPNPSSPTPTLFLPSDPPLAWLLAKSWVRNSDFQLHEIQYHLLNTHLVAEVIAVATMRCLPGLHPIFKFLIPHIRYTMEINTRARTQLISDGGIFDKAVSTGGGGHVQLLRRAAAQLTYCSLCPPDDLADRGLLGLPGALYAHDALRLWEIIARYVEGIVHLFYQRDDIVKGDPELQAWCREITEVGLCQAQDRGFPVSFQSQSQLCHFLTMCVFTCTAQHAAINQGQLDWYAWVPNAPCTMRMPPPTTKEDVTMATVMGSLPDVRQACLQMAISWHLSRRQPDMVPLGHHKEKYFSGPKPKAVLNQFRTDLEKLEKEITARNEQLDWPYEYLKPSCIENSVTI
# Values joined by “and” are separate entries in the source; they are usually repeats but may differ in a detail not shown here. Equal values may be shown once. About 6,100 (1.1%) of roughly 580,000 compounds were called active. This list was built around the results that the source calls inconclusive (neither active nor inactive); the mix of calls is not that of the screen. Calls come from the whole dose curve; as a rule, active = well fitted inhibition curve with a large enough effect; inconclusive = small, poorly fitted or top-dose-only effect, or another doubt; inactive = no such curve, though single readings can be large or run the other way. Potencies beside an inconclusive call are fits to weak or partial responses and may not hold up.
# Biological target: Polyunsaturated fatty acid lipoxygenase ALOX12 (Homo sapiens) (UniProt P18054)
# Assay: Primary qHTS assay for inhibitors of human arachidonate 12S-lipoxygenase (ALOX12): Round 2
# Details: purified 12hLO, xylenol orange hydroperoxide absorbance; activity change, negative = inhibition: at 108 µM (top of the series) unless noted
# How it was run: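 Purified human 12hLO (150 nM final) in 25 mM Hepes, 0.01% Triton X-100, pH 7.0 was preincubated 15 min at room temperature with compound. Then 40 uM arachidonic acid was added, 30 min. Hydroperoxide was read by Fe-XO absorbance ratio 573/405 nm.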
# % is set by controls: 0 for no effect and ±100 for the full control effect; potency is the fitted concentration of half-maximal effect.
Structure (SMILES),Potency,"activity change, negative = inhibition"
Cc1ccccc1-n1c(CSC(=N)N)nc2ccccc2c1=O,"inconclusive: 31.6 µM [inhibitor, partial curve, poor fit]",–
COC(=O)CNC(=O)C(Cc1c[nH]c2ccccc12)NC(=O)OC(C)(C)C (stereo not drawn),–,inactive: 0%
N[C@H](CCC(=O)NCC(=O)O)C(=O)O,"inconclusive: 3.55 µM [inhibitor, full curve, poor fit]",–
Cc1ccc(C)c(CN2CCCN(C(=O)Cn3ncc4c3-c3ccccc3OC4)C2)c1,–,inactive: 95.5%
COC(=O)C1=C(N)N(c2ccc(Cl)cc2)C2=C(C(=O)CCC2)C1c1ccc(OC)cc1 (stereo not drawn),"inconclusive: 44.7 µM [inhibitor, partial curve, poor fit]",–
O=C(Cc1c[nH]c2ncc(-c3ccc(Cl)cc3)cc12)NCc1cccnc1,"inconclusive: 126 µM [inhibitor, partial curve, poor fit]",–
CS(=O)(=O)Oc1ccc2c(=O)c(Oc3ccccc3Br)coc2c1,–,inactive: -44.8%
O=C(Nc1ccc2c(c1)OCO2)c1ccc(Br)s1,"inconclusive: 10 µM [inhibitor, full curve, poor fit]",–
CCCCNC(=O)/C=C/c1ccc(S(=O)(=O)Nc2ccc(OC)cc2)cc1,"inconclusive: 39.8 µM [inhibitor, single point]",–
CCOc1ccc(S(=O)(=O)N2CCCC2c2ccc(F)cc2)cc1 (stereo not drawn),–,inactive: 1.7%
CCOC(=O)c1sc(=S)n(Cc2ccccc2)c1N,"inconclusive: 56.2 µM [inhibitor, partial curve, poor fit]",–
Cc1noc(-c2ccncc2)c1C(=O)NCCCCc1ccccc1,"inconclusive: 100 µM [inhibitor, partial curve, poor fit]",–
O=C(O)c1c(Cl)c(Cl)c(Cl)c(Cl)c1C(=O)N1CCCC1,"inconclusive: 35.5 µM [inhibitor, partial curve, poor fit]",–
CCN(C(=O)c1cccs1)c1cccc(C)c1,–,inactive: 1.73%
O=C(NCc1ccc2c(c1)OCCO2)N1CCN(S(=O)(=O)c2cccc(Cl)c2Cl)CC1,"inconclusive: 126 µM [inhibitor, single point]",–
O=C(C1CC1)N1CCN(Cc2ccccc2)CC1,–,inactive: 134%
O=C(c1ccco1)N1N=C(c2cccs2)CC1c1cc([N+](=O)[O-])ccc1O (stereo not drawn),"inconclusive: 44.7 µM [inhibitor, single point]",–
Cc1oc2c(cc(NS(=O)(=O)c3ccc(C(C)C)cc3)c3ccccc32)c1C(=O)O,"inconclusive: 126 µM [inhibitor, partial curve, poor fit] and inconclusive: 44.7 µM [inhibitor, partial curve, poor fit]",–

# Part of the list above in order of SMILES length, low to high.
Structure (SMILES),Potency,"activity change, negative = inhibition"
N[C@H](CCC(=O)NCC(=O)O)C(=O)O,"inconclusive: 3.55 µM [inhibitor, full curve, poor fit]",–
Cc1noc(-c2ccncc2)c1C(=O)NCCCCc1ccccc1,"inconclusive: 100 µM [inhibitor, partial curve, poor fit]",–
Cc1oc2c(cc(NS(=O)(=O)c3ccc(C(C)C)cc3)c3ccccc32)c1C(=O)O,"inconclusive: 126 µM [inhibitor, partial curve, poor fit] and inconclusive: 44.7 µM [inhibitor, partial curve, poor fit]",–
O=C(NCc1ccc2c(c1)OCCO2)N1CCN(S(=O)(=O)c2cccc(Cl)c2Cl)CC1,"inconclusive: 126 µM [inhibitor, single point]",–
COC(=O)C1=C(N)N(c2ccc(Cl)cc2)C2=C(C(=O)CCC2)C1c1ccc(OC)cc1 (stereo not drawn),"inconclusive: 44.7 µM [inhibitor, partial curve, poor fit]",–
